In the supplement of paper PMC9015667:
The list shows a part of the results. Single values are uncertain, as repeats are few or missing.

These compounds were tested on M238P (parental melanoma line) (assay: reduction in cell viability relative to untreated/vehicle; higher = more growth inhibition). Settings: 200 nM; 72 h.
With `O=C(Nc1ncc(SCCN2CCCC2)s1)[C@]1(c2ccc(S(=O)(=O)C3CC3)cc2)C[C@H]1C1CCCCC1` the “reduction in cell viability” value was less than 0%.
For `Cc1cc(Nc2cc(NC(=O)c3c(Cl)cccc3Cl)ccn2)nc(N)n1`, the “reduction in cell viability” value was 24.4%.
For `C#Cc1cccc(Nc2ncnc3cc(OCCOC)c(OCCO)cc23)c1`, the “reduction in cell viability” value was less than 0%.
`Nc1nc(OCc2ccccc2)c2nc[nH]c2n1` [O6-Benzylguanine] was tested, and the “reduction in cell viability” value was less than 0%.

The compounds below were run on M238R (matched melanoma line resistant to BRAF inhibitors) in the same assay as above. Settings: 200 nM; 72 h.
`CCCCc1ccc(NS(=O)(=O)c2ccc(C)c(C(=O)N3CCN(c4cccc(C)c4C)CC3)c2)cc1` was tested, and the “reduction in cell viability” value was less than 0%.
For `COc1ccccc1N1CCN(CC(O)COc2cccc3ccccc23)CC1` (stereo not drawn) [Naftopidil], the “reduction in cell viability” value was less than 0%.
For `CN[C@H]1CN(c2ccc3c(=O)c(C(=O)O)cn(-c4nccs4)c3n2)C[C@@H]1OC` [Vosaroxin], the “reduction in cell viability” value was less than 0%.
`NC(=O)OCC(COC(N)=O)c1ccccc1` [Felbamate] was tested, and the “reduction in cell viability” value was less than 0%.
With `CC/C(=C(\c1ccc(O)cc1)c1ccc(OCCNC)cc1)c1ccccc1` [Endoxifen] the “reduction in cell viability” value was less than 0%.
`CC[C@H]1OC(=O)[C@H](C)[C@@H](O[C@H]2C[C@@](C)(OC)[C@@H](O)[C@H](C)O2)[C@H](C)[C@@H](O[C@@H]2O[C@H](C)C[C@H](N(C)C)[C@H]2O)[C@](C)(O)C[C@@H](C)CN(C)[C@H](C)[C@@H](O)[C@]1(C)O` [Azithromycin] was tested, and the “reduction in cell viability” value was less than 0%.
For `Nc1ccn([C@@H]2CO[C@H](CO)O2)c(=O)n1` [Troxacitabine], the “reduction in cell viability” value was less than 0%.
`COc1cc(N2CCC(N3CCN(C)CC3)CC2)ccc1Nc1ncc(Cl)c(Nc2ccccc2S(=O)(=O)C(C)C)n1` was tested, and the “reduction in cell viability” value was 14.1%.
`COC(=O)N1CCN(Cc2cccc(NC(=O)Nc3ccc(C)nc3)c2F)CC1` [Omecamtiv mecarbil] was tested, and the “reduction in cell viability” value was less than 0%.
